PubChem BioAssay AID652272, Drosophila RNAi Screening Center, 2013

Test: 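Genes whose knock-down decreases or increases Hedgehog reporter output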 (primary screen)
Cell system: Drosophila clone 8 (Cl8) cells
Reagent: long dsRNA against Drosophila genes
Measurement: 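Firefly light from a Hedgehog-responsive ptc promoter reporter and Renilla reference light, both read on a plate reader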
Direction: firefly Hh reporter signal: higher = more ptc reporter light; Renilla reference signal: higher = more Renilla control light
Active means: 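Hit when the z-score averaged over two replicates is under -2 or over +3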
Calls: active = hit: reporter lowered or raised; inactive = not a hit
The deposit covers about 21,000 reagents; below is a random part of those with a known target gene and a result. In the full data, 503 (2.4%) are marked active. 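Raw plate light values, not normalised; calls rest on replicate z-scores that were not deposited; hits include reporter decreases as well as increases.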 A plus sign joins genes that one reagent is predicted to hit. Not given: the amount of reagent, the time to read-out.

no.	gene	DRSC id	firefly Hh reporter signal, replicate 1	firefly Hh reporter signal, replicate 2	firefly Hh reporter signal, replicate 3	Renilla reference signal, replicate 1	Renilla reference signal, replicate 2	outcome
1	E(spl)mgamma-HLH	DRSC16699	6.42e5	1.30e5		31803	9557	inactive
2	CG42304 + Snup	DRSC08276	2.42e5	1.57e5		8791	6512	inactive
3	CG42304 + Snup	DRSC08277	40133	27696		1793	2476	inactive
4	CG15237	DRSC04971	1.26e5	52416		3474	4628	inactive
5	RluA-2	DRSC02939	72961	55752		3250	2505	inactive
6	Sec3	DRSC10384	87837	45812		3252	2019	inactive
7	lmgA + lmgB	DRSC03566	95511	44883		2448	3789	inactive
8	CG11980	DRSC14456	81516	95897		3802	4077	inactive
9	CG32812	DRSC18478	61568	1.57e5		1712	5963	inactive
10	CG17598	DRSC20636	99353	71289		2317	1837	inactive
11	mdy	DRSC01559	1.01e5	2.52e5		2873	10752	inactive
12	mdy	DRSC02250	73589	73488		2793	3088	inactive
13	CG11251	DRSC09825	84989	37098	42114	1792	2870	inactive
14	CG7646	DRSC11232	1.41e5	1.59e5		3635	4790	inactive
15	CG3589	DRSC04392	1.64e5	1.11e5		6113	2736	inactive
16	CG14374	DRSC14834	88538	74893		2832	2128	inactive
17	CG4294	DRSC04460	91920	39909		3574	1632	inactive
18	RNaseX25	DRSC11259	82128	64549		3468	2784	inactive
19	Clk	DRSC11117	52032	51840		5813	3463	inactive
20	CG5555	DRSC15834	1.28e5	57616		5692	2377	inactive
21	Cpr64Ab	DRSC08461	76099	52418		2490	3840	inactive
22	CG13305	DRSC09975	40680	35620		4664	2529	inactive
23	CG9119	DRSC08620	94183	82816		4265	3370	inactive
24	alpha-Est2	DRSC12614	56690	87362		1437	2434	inactive
25	Decay	DRSC16930	98738	80490		3188	276	inactive
26	CG4983	DRSC02799	84550	49504		3393	2434	inactive
27	CG32450	DRSC11546	1.84e5			4375		inactive
28	sws	DRSC18843	5.07e5	6.63e5	2.27e5	26045	3756	inactive
29	Mgat4b	DRSC10256	71572			3121	1907	inactive

Next part (8 carried over from the part before).
no.	gene	DRSC id	firefly Hh reporter signal, replicate 1	firefly Hh reporter signal, replicate 2	firefly Hh reporter signal, replicate 3	Renilla reference signal, replicate 1	Renilla reference signal, replicate 2	outcome
22	CG13305	DRSC09975	40680	35620		4664	2529	inactive
23	CG9119	DRSC08620	94183	82816		4265	3370	inactive
24	alpha-Est2	DRSC12614	56690	87362		1437	2434	inactive
25	Decay	DRSC16930	98738	80490		3188	276	inactive
26	CG4983	DRSC02799	84550	49504		3393	2434	inactive
27	CG32450	DRSC11546	1.84e5			4375		inactive
28	sws	DRSC18843	5.07e5	6.63e5	2.27e5	26045	3756	inactive
29	Mgat4b	DRSC10256	71572			3121	1907	inactive
30	Acph-1	DRSC14103	91536	97621		4048	4156	inactive
31	okr	DRSC00834	90259	1.12e5		3856	5205	inactive
32	CG13601	DRSC14604	1.10e5	47313		4808	1251	inactive
33	Bap55	DRSC07000	75863	56477		3825	2890	inactive
34	Nup62	DRSC06970	90860	57136		4507	2472	inactive
35	h-cup + Rbp	DRSC14990	1.28e5	1.05e5		4043	2709	inactive
36	Chro	DRSC11630	1.25e5	92759		3525	2449	active
37	kl-5 (retired record)	DRSC20707	95723	2.49e5		4091	9287	inactive
38	kl-5 (retired record)	DRSC20736	5.01e5	2.05e5		31713	4458	inactive
39	kl-5 (retired record)	DRSC20773	6.28e5	1.87e5		34069	4261	inactive
40	kl-5 (retired record)	DRSC21161	5.88e5	2.51e5		31859	5965	inactive
41	Oseg4	DRSC08548	1.10e5	76768		4516	2474	inactive
42	CG33342	DRSC13662	46160	2.33e5		12512	5286	inactive
43	Lint-1 + rtv	DRSC19541	1.01e5	59964		2420	1399	inactive
44	Rbp1	DRSC16817	1.11e5	99665		4168	3347	inactive
45	pwn	DRSC06035	1.28e5	74970		2902	6833	inactive
46	miple1	DRSC08722	1.17e5	56965		4464	4153	inactive
47	CG13154	DRSC06279	66602	38280		2146	3533	inactive
48	CG9411	DRSC20184	1.50e5	82250		3458	2292	inactive
49	Dph5	DRSC16653	1.25e5	1.03e5		5124	4016	inactive
50	CG17672	DRSC09230	46473			1636		inactive
51	CG17672	DRSC10278	1.73e5	71611		6384	2051	inactive
52	RecQ5	DRSC11266	76320	96228		3257	3569	inactive
53	sog	DRSC20379	41649	1.24e5		1376	7099	inactive
54	Rubicon	DRSC17889	81304	2.34e5		2123	7456	inactive
55	Cpr11A	DRSC19861	88042	2.49e5		2694	9473	inactive
56	Est-6	DRSC11162	23783	37245	50320	3808	3939	inactive
57	Boh2	DRSC02777	1.34e5	84556		3829	6688	inactive
